Values of other authors in paper PMC5686171 (Scientific Reports, 2017).

Test system: α1T206C in α1β2γ2
Settings: ref [12],[27]; cited from earlier work

NCCCC(=O)O [GABA, γ-Aminobutyric acid]
Increase in EC50 GABA: (5-fold increase in EC50 GABA)
